We go through 42 sequences from publication PMC7819943, “Rice protein-binding microarrays: a tool to detect cis-acting elements near promoter regions in rice”.

By UniProt entry, the sequences of proteins in these tests, tags left out.
UniProt Q0JBA9, entry or part of it: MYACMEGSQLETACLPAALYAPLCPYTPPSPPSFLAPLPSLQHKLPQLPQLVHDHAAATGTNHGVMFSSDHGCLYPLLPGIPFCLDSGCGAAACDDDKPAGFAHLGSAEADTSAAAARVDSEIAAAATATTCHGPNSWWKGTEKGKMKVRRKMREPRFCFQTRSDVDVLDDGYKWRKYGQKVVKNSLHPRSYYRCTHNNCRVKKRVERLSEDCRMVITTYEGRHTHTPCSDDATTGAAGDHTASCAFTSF

Some of the results follow.

For this assay, the target named is OsWRKY34 (Oryza sativa, UniProt Q0JBA9 1-250). Put plainly: protein-binding microarray (RPBM); PBS, 2% BSA, 51.3 ng/ul salmon testes DNA, 50 uM zinc acetate, 200 nM TF, 25 C, 1 h; high values mean tight binding. Conditions: protein: recombinant; tags: N-terminal polyhistidine and DsRed monomer fusion (pET32a); label: CyDye5-dUTP incorporated in the synthesized complementary strand; 3' TTTTT single-stranded linker to array surface; dsDNA, one strand shown. The essentials: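 Using Ni–NTA, transcription factors fused N-terminally to polyhistidine and DsRed were purified after expression in E. coli BL21-CodonPlus. These were incubated at 200 nM with a blocked, double-stranded custom Agilent array for 1 h at 25 °C in a buffer containing 50 µM zinc acetate, and the array was washed. The binding signal is per-feature fluorescence intensity (arbitrary units) on an Axon 4000B scanner.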
For “ATATGTACCGTCATATCCCATCCAGTTTTGACGGTAAATCCGGAGTCACCTAGTGCAG”, the binding signal is 8550 fluorescence intensity (a.u.).
With “AACCTCTGCACCTCCTCCAACCAAACTAGCAGCTCCTGATCGGAGTCACCTAGTGCAG” the figure was 8590 fluorescence intensity (a.u.); with “GCCAAACCACATGCATCCTATTATTTTGAAATTCATGAAGCGGAGTCACCTAGTGCAG”, 11000 fluorescence intensity (a.u.); with “TGCTGACTTGTTGCAACTTTGAACTACTTTCATCGTATAGCGGAGTCACCTAGTGCAG”, 8560 fluorescence intensity (a.u.).
The value for “ACTTAGTATGAACTAGATACTGCCGCGCGTTTGGGCATTCCGGAGTCACCTAGTGCAG” was 9230 fluorescence intensity (a.u.).
The value for “TCGATTCGACGACACCTTCATTTTTATTTTCTTCCTTGTGCGGAGTCACCTAGTGCAG” was 9200 fluorescence intensity (a.u.); that for “GATATTGGCTGTGTTCAGTTCCCTTTAAACTTTCAACTTTCGGAGTCACCTAGTGCAG” was 8480 fluorescence intensity (a.u.).
For the sequence “GAGTATTTTTTATCCGGCCTCTATATCCATTTAAATATATCGGAGTCACCTAGTGCAG”, the binding signal is 8200 fluorescence intensity (a.u.).
The value for “GCTAAGTACTCCGTTGTCACCGCGTCCTTGGTTTTGCTAACGGAGTCACCTAGTGCAG” was 13100 fluorescence intensity (a.u.); that for “CGGGCCAGCAAATCCTTCATCACTGTCTGCTGGATCGGCCCGGAGTCACCTAGTGCAG” was 9160 fluorescence intensity (a.u.).
The value for “GCTTCCTCCCTACGAGCACGACCCACCCACGTCATCATCCCGGAGTCACCTAGTGCAG” was 8290 fluorescence intensity (a.u.); that for “GGCGTCAAATTTGGGTATAAACAATTTCCTTTTCTCTTTCCGGAGTCACCTAGTGCAG” was 8390 fluorescence intensity (a.u.).
The value for “CTTCAACCCCACGGCCCAGTACTGTATATCGATGGCCCACCGGAGTCACCTAGTGCAG” was 8170 fluorescence intensity (a.u.).
With “TCACTCATCGCCGCTCCGCCATTGCCCAGAGCTTTTCTTTCGGAGTCACCTAGTGCAG”, the binding signal was 12700 fluorescence intensity (a.u.).
On to “ATGTCCATGCAACGTTTCTCAATTCAATGAGCAGGAAGACCGGAGTCACCTAGTGCAG”, for which the binding signal was 8230 fluorescence intensity (a.u.).
With “TCGTGGTGGTTTTGTTTCTCTCCTTCCCACCTACTCTCTCCGGAGTCACCTAGTGCAG” the figure was 8390 fluorescence intensity (a.u.); with “CTTGCATACCCTTCCCGTCAGTTGACCGTGTATTTTCTATCGGAGTCACCTAGTGCAG”, 14400 fluorescence intensity (a.u.); with “ACAAATCCCCGAACTTGCGAAGTATCGGCCTCTTCTTCTTCGGAGTCACCTAGTGCAG”, 12000 fluorescence intensity (a.u.).
With “TCCCCAGCGGCGTACCAGTTCTCCCGTACCATCTGCAGAACGGAGTCACCTAGTGCAG” the figure was 8110 fluorescence intensity (a.u.).
The value for “CCACCGCGCGCGCGCTCTCCACAGAAAATAATCTCCGCCGCGGAGTCACCTAGTGCAG” was 8400 fluorescence intensity (a.u.); that for “AAGGGTACACTTTATTTTGTTGGGACAAACTTTGACCAATCGGAGTCACCTAGTGCAG” was 8510 fluorescence intensity (a.u.); that for “CACACCCTTACTGTAGCTATCACTGCACAAAGCCAAAACCCGGAGTCACCTAGTGCAG” was 9130 fluorescence intensity (a.u.).
Turning to “AATACGGGCCGCCTGTGCTCTTCGTACTTCCACCGCTTTCCGGAGTCACCTAGTGCAG”, the binding signal is 9870 fluorescence intensity (a.u.).
As for “GCCATGGGGTTGACTCTCTGGGTGTTCTTGGTTTCTTGGCCGGAGTCACCTAGTGCAG”, the binding signal is 10500 fluorescence intensity (a.u.).
The value for “GAACAGGCAGATTACAATGCATTGTTGTTTCATTGTATCGCGGAGTCACCTAGTGCAG” was 9900 fluorescence intensity (a.u.).
With “ATCCGATATTACCTGTAATCTTTTCTATGCATACATCATACGGAGTCACCTAGTGCAG” the figure was 10200 fluorescence intensity (a.u.); with “CTATCGCCACCTTTTGCCTTGATTTCTCCTTATTGCTAAACGGAGTCACCTAGTGCAG”, 14600 fluorescence intensity (a.u.).
Take “CTCGATCGATCCCGTTATTCCTTTTTAATCTTTTCTTGTGCGGAGTCACCTAGTGCAG”: the binding signal was 8460 fluorescence intensity (a.u.).
As to “GCCGCCCAAAAATGTTTTGGTATACTCCTTGCTGGTGATACGGAGTCACCTAGTGCAG”, the binding signal was 8720 fluorescence intensity (a.u.).
The value for “ATATTTTTCATTTTTATTTATCTCTCTTCCATATAAATTTCGGAGTCACCTAGTGCAG” was 8890 fluorescence intensity (a.u.).
Take “GCTATGAGTGCATCTAGATTTTTTGTAACTTCCATCTACTCGGAGTCACCTAGTGCAG”: the binding signal is 8640 fluorescence intensity (a.u.).
For “CTAGGGTTCGGTCGCCACCGCGTTCTCCTCGCCCAATCTCCGGAGTCACCTAGTGCAG”, the binding signal is 8280 fluorescence intensity (a.u.).
For “CCGTACACACACACGACGCAGCCGTAGACATGCAACCGAACGGAGTCACCTAGTGCAG”, the binding signal was 8350 fluorescence intensity (a.u.).
Take “TTGAAGAGTGAACCTTATTATTTAACCATTACTATGTTCTCGGAGTCACCTAGTGCAG”: the binding signal is 8760 fluorescence intensity (a.u.).
In the case of “CCAAAAACCGCCTCCGCCACCGCTTACCCATCCACGGATCCGGAGTCACCTAGTGCAG”, the binding signal was 10900 fluorescence intensity (a.u.).
With “ATGGATGGAAAATATTACTATAGTGGCATGGTTCTAATTTCGGAGTCACCTAGTGCAG” the figure was 8280 fluorescence intensity (a.u.); with “TCACACTGTTCCATGATAGCTGCCGGCACTAACCCTTCACCGGAGTCACCTAGTGCAG”, 10400 fluorescence intensity (a.u.).
With “ACACACAAAGATCTCGTCCTCTTTTTTCCTTCTTTTTTGGCGGAGTCACCTAGTGCAG”, the binding signal is 9500 fluorescence intensity (a.u.).
The value for “CACGCACCCAAATTTCAAACTCCGCGGCCGCTCCGCCACTCGGAGTCACCTAGTGCAG” was 8760 fluorescence intensity (a.u.); that for “CCGCAAAAACCACGCCGCCATCACAGCATTCGTGCATCCCCGGAGTCACCTAGTGCAG” was 8920 fluorescence intensity (a.u.); that for “GTGATGTTAGAGCATTTTATTAGCCTTTGTCTTTTTTAACCGGAGTCACCTAGTGCAG” was 9020 fluorescence intensity (a.u.).
Consider “ATCTCTCACTCGATTTTCTCACTCAAATTTACAGTGTATTCGGAGTCACCTAGTGCAG”, for which the binding signal is 11100 fluorescence intensity (a.u.).
